Source: patent publication US20240122938A1, “METHODS AND COMPOSITIONS FOR TREATING UVEAL MELANOMA” (INSERM (INSTITUT NATIONAL DE LA SANTÉ ET DE LA RECHERCHE …, priority 2019, published 2024)
At least one compound was matched to its structure with a doubt left.

System: uveal melanoma cell lines
Experiment: Cell proliferation assay, four cell lines
Format: cell-based, human
Conditions: three out of the four cell lines assessed

## CC1(C)CCC(CN2CCN(c3ccc(C(=O)NS(=O)(=O)c4ccc(NCC5CCOCC5)c([N+](=O)[O-])c4)c(Oc4cnc5[nH]ccc5c4)c3)CC2)=C(c2ccc(Cl)cc2)C1 [ABT-199]
  sensitivity in cell proliferation assay: not sensitive
